Experimental data from patent publication US7208270B2, “Method for diagnosing a person having multiple sclerosis” (priority 2001, dated 2007).
For at least one compound, name, drawing or mass did not settle the structure.

System: SARG-1 over-expressing PC12 cells
Test: Viability of SARG-1 over-expressing PC12 cultures treated with kinase inhibitors
Type: cell-based, rat
Settings: staurosporine at 100 nM, in comparison to vector control cultures
Text: To examine the expression and function of SARG-1 in a neural cell culture system, standard molecular biology techniques (Sanbrook et al, 1989) were used to clone the rat SARG-1 coding sequence (rSARG-1479) into the pIRESII-EGFP eukaryotic expression vector (Clontech) under the control of a CMV promoter which bicistroni-cally translates through an internal IRES sequence both SARG-1477 and enhanced green fluorescent protein. The rat pheochromocytoma PC12 cell line was maintained in DMEM supplemented with 8% horse serum, 8% fetal calf serum and an antibiotic-antimycotic mix containing 100 units/ml penicillin, 100 μg/ml streptomycin, and 0.25 μg/ml amphotericin B (all from GibcoBRL) in a fully humidified air atmosphere containing 5% CO2 at 37° C. Semi-confluent cultures in 6-well plates were transfected with pIRES2-EGFP-SARG-1 or empty vector for 18 h in the presence of the uptake enhancing cationic lipid mix pFx1 (Invitrogen) at a 6:1 lipid to DNA ratio in serum-free opti-MEN (Gibco). Stable transfectant colonies were picked from separate wells after selection in […] geneticin (Gibco) and clones with similar EGFP fluorescence expanded from independent transfections.
Over-expression of SARG-1 also enhances terminal differentiation of PC12 cells induced by nerve growth factor (FIG. 14).

COC[C@H]1OC(=O)c2coc3c2[C@@]1(C)C1=C(C3=O)[C@@H]2CCC(=O)[C@@]2(C)C[C@H]1OC(C)=O [Wortmannin]
effect on viability / cell death: No similar effects
